Results reported in patent US20230073214A1, “BIOACTIVE RELEASING MEMBRANE FOR ANALYTE SENSOR” (DexCom, Inc., priority 2021, published 2023).

Test: additional release experiments with dexamethasone salts in different bioactive releasing membrane combinations
Type: physicochemical
Details: incorporated in a biointerface polymer membrane

- duration of sustained release: about 2 days
SMILES: C[C@@H]1C[C@H]2[C@@H]3CCC4=CC(=O)C=C[C@]4(C)[C@@]3(F)[C@@H](O)C[C@]2(C)[C@@]1(O)C(=O)COP(=O)(O)O [Dexamethasone phosphate]
